Source: patent publication US20200369769A1
No constants are given. Whether binding was seen depends on the method and setting. Some results given as binding are weak or reduced against the parent protein; the word gives no strength.

Protein sequences, listed by entry. Tags and fused reporters are not part of them. Residues count along the entry.
UniProt B5TVM2, residues 36-661: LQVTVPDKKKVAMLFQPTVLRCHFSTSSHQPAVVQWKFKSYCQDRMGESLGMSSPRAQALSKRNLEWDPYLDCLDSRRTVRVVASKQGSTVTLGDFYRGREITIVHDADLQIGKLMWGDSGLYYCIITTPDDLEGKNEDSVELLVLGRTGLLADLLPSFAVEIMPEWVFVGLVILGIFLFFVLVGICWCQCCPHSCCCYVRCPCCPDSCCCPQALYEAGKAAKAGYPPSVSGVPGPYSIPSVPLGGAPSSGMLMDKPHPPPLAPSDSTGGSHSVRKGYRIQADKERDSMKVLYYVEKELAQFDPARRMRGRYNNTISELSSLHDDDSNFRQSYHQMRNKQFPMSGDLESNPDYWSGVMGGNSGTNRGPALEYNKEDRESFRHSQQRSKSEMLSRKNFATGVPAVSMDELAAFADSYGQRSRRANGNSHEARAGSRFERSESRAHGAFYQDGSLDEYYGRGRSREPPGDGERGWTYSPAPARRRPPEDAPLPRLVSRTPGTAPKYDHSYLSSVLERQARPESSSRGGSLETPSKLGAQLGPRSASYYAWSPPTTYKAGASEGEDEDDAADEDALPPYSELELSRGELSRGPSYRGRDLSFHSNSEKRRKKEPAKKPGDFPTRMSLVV

Biological target: murine ILDR2 (murine) (UniProt B5TVM2)
Assay: flow cytometry on HEK cells expressing murine ILDR2

binding: binds
B1: 61-02.C05 (antibody, V domains shown)
VH: EVQLVESGGGVVQPGGSLRLSCAASGFTFSSYAMSWVRQAPGKGLEWVSGISSSGGSTQYADSVKGRFTVSRDNSKNTLYLQMKSLRAEDTALYYCAKDFVGVLPDAFDIWGQGTMVTVSS
VL: DIQLTQSPSSLSASVGDRVTITCQASQDTNKYLNWYQQKPGKAPELLIYGASTLESGVPPRFSASGSGTDFTLTINSLQPEDIGRYYCQQYHIPPPSFGGGTKLEIK
